Construct, isoform or probe ends are uncertain for at least one entry. Weaker means in comparison with the reference protein, sequence or condition of that experiment. At least one verdict was read from the data and is not stated in words by the source. Protein sequences can lack the tags named with them.

The data set deals with T1, MBP-ZFP57 DNA binding domain (Glu87-Ala195) (Mus musculus) (UniProt Q8C6P8).
T1 sequence (looked up): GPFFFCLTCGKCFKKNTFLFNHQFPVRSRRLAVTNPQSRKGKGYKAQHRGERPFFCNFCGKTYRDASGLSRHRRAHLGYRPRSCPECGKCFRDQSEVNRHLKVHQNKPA
Description: EMSA. Particulars: EMSA: 25 pmol protein, 2.5 pmol dsDNA, 25 mM HEPES pH 7.9, 50 mM KCl, 6.25 mM MgCl2, 5% glycerol, on ice 10 min, 5% PAGE, SYBR Green stain, recombinant protein, residues 87-195.

As to “GTAATATTGTCGCAGTAATA (double strand) [Methylated 3T]”, where the note is “5mC at top 11 and bottom 9”, the binding result is listed as “binds more weakly”.
On the same count and under the same terms, as for “GTAATATTGGCGCAGTAATA (double strand) [Methylated 3G]”, the entry is “binds more weakly”; as for “GTAATATTGCCGTAGTAATA (double strand) [Methylated 6T]”, “binds more weakly”.
Consider “GTAATATTCCCGCAGTAATA (double strand) [2C]”, for which the binding result is on record as “binds more weakly”.
On the same count and under the same terms, as for “GTAATATTTCCGCAGTAATA (double strand) [2T]”, the entry is “binds more weakly”.
For “GTAATATAGCCGCAGTAATA (double strand) [1A]”, the binding result is “binds more weakly”.
Still for that read-out and setting: under “GTAATATTGACGCAGTAATA (double strand) [3A]” stands “binds more weakly”; under “GTAATATTGCCCCAGTAATA (double strand) [5C]”, “binds more weakly”.
For the sequence “GTAATATTGCCGAAGTAATA (double strand) [Methylated 6A]”, the binding result (5mC at top 11 and bottom 9) is reported as “binds more weakly”.
On to “GTAATATTGCCGGAGTAATA (double strand) [6G]”, for which the binding result is given as “binds more weakly”.
Turning to “GTAATATTCCCGCAGTAATA (double strand) [Methylated 2C]”, where the note is “5mC at top 11 and bottom 9”, the binding result is “binds more weakly”.
As to “GTAATATTGCCGAAGTAATA (double strand) [6A]”, the binding result is recorded as “binds more weakly”.
With “GTAATATTTCCGCAGTAATA (double strand) [Methylated 2T]”, the binding result (5mC at top 11 and bottom 9) is “binds more weakly”.
For the sequence “GTAATATTGCCTCAGTAATA (double strand) [5T]”, the binding result is “binds more weakly”.
On to “GTAATATTACCGCAGTAATA (double strand) [Methylated 2A]”, for which, for the setting “5mC at top 11 and bottom 9”, the binding result was “binds more weakly”.
“GTAATATTGACGCAGTAATA (double strand) [Methylated 3A]”: the binding result (5mC at top 11 and bottom 9) is on record as “binds more weakly”.
As for “GTAATATTGTCGCAGTAATA (double strand) [3T]”, the binding result is recorded as “binds more weakly”.
For the sequence “GTAATATAGCCGCAGTAATA (double strand) [Methylated 1A]”, for the setting “5mC at top 11 and bottom 9”, the binding result is “binds more weakly”.
For the sequence “GTAATATTGCCGTAGTAATA (double strand) [6T]”, the binding result is “binds more weakly”.
The same measure, in the same setting: under “GTAATATTGCCACAGTAATA (double strand) [5A]” stands “binds more weakly”.
As for “GTAATATCGCCGCAGTAATA (double strand) [Methylated 1C]”, the binding result (5mC at top 11 and bottom 9 and 12, legend says two methylated CpGs, but top 8 is printed as C) was “binds more weakly”.
For the sequence “GTAATATTACCGCAGTAATA (double strand) [2A]”, the binding result was “binds more weakly”.
Consider “GTAATATTGCCGGAGTAATA (double strand) [Methylated 6G]”, for which, for the setting “5mC at top 11 and bottom 9”, the binding result was “binds more weakly”.
As to “GTAATATTGGCGCAGTAATA (double strand) [3G]”, the binding result was “binds more weakly”.
Same read-out and setting: under “GTAATATCGCCGCAGTAATA (double strand) [1C]” stands “binds more weakly”.

These data come from PMC4756812, “ZFP57 recognizes multiple and closely spaced sequence motif variants to maintain repressive epigenetic marks in mouse embryonic stem cells”.
